Results are given in words; binding and its absence hold for the method and conditions named. Some entries that bind do so weakly or less than the wild type. Tags and fused reporters may be left off the sequences shown.

The chains behind the UniProt entries cited, without tags or fusion partners. Where a name states a change or a piece, a line headed by the entry shows the natural chain unless it says otherwise.
UniProt P04386: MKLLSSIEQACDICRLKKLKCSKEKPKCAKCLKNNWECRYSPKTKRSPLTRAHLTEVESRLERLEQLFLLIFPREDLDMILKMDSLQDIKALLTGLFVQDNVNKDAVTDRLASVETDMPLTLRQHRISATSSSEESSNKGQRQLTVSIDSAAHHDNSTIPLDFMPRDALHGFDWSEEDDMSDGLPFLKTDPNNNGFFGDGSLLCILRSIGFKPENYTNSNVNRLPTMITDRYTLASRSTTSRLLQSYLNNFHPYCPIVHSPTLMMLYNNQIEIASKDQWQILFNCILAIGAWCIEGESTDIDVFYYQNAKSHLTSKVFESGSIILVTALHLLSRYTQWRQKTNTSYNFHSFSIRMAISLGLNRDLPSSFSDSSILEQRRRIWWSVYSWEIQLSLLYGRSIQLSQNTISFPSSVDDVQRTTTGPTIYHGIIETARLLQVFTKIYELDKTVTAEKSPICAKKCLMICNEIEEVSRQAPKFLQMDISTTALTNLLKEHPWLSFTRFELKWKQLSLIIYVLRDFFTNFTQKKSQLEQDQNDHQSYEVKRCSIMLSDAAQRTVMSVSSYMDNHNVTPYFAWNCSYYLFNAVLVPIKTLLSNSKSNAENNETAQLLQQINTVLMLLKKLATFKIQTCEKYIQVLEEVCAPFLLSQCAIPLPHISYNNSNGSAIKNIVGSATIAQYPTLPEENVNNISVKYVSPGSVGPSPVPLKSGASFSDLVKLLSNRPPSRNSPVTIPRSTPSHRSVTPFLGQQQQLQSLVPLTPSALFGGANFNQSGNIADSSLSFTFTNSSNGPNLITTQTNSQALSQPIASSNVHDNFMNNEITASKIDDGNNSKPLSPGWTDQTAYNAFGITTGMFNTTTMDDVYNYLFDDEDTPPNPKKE
UniProt P42752: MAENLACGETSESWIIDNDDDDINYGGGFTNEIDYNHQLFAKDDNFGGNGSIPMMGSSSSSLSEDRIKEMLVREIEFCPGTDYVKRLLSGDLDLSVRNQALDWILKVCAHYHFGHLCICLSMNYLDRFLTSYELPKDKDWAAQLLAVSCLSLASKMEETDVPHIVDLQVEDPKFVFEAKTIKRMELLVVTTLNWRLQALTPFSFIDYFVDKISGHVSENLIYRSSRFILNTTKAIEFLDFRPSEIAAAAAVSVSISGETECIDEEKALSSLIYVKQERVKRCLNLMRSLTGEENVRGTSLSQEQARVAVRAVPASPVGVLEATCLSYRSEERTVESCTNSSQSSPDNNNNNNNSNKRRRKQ

The target in the assay is Gal-4-CycD2At fusion protein (Arabidopsis thaliana D-type cyclin D2 fused to the GAL4 DNA binding domain; bait plasmid pGBT9cycD2At) (Arabidopsis thaliana) (UniProt P04386+P42752). Nature of the assay: yeast two-hybrid screen (growth on His- / 3-aminotriazole medium and beta-galactosidase activity), cyclin D2 as GAL4 DNA binding domain bait.

B1: BRO1 (clone from the Arabidopsis thaliana cDNA / GAL4 activation domain fusion library, pACT BRO1) (protein, not shown: large carriers)
chain: MASKKARKPNRAEKKLTRSCFKKQVPQHNNINTSITLDQTSTSTIVSTCSSSSTTLSSPLDTIYSVPSPSPAAVLTSPGGCCTPKAKKSRIPEMLTCPPAPKKQRVSKNCVLRRRQIVFFAPPEIELFFVNAHDR
Turning to B1, the binding entry is on record as “binds”.

Source of the values: US7230089.
